Measured values from publication PMC4792234, “Modulation of MICAL Monooxygenase Activity by its Calponin Homology Domain: Structural and Mechanistic Insights” (Scientific Reports, 2016).
No constants are given. Whether binding was seen depends on the method and setting.

Target: T1, MICAL_(MO-CH), fragment of mouse MICAL-1 containing the MO and CH domains (residues 2 to 615) (Mus musculus) (UniProt Q8VDP3)
T1 sequence: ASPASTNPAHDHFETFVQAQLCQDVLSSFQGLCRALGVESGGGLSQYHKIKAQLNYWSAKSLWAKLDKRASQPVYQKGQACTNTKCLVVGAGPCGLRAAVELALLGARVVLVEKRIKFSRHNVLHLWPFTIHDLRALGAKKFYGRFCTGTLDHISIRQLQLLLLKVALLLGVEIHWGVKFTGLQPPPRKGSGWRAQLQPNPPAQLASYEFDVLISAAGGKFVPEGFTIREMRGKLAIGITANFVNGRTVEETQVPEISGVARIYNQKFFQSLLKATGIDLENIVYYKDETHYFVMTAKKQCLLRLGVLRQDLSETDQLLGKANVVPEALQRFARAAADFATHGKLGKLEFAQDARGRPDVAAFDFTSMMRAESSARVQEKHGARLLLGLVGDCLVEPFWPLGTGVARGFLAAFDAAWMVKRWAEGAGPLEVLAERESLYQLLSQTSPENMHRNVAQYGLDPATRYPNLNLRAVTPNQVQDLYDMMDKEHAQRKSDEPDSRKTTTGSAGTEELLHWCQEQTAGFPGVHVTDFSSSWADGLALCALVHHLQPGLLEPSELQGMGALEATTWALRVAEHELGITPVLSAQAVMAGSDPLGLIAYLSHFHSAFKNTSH
Experiment: condition: 19 mM peptide solution, mixed 1:1 with the protein solution; crystal structure; co-crystallisation (native 1): 1 ul MICAL_(MO-CH) at 25 mg/ml mixed with 1 ul of 19.0 mM D-loop peptide, 30 min at room temperature; reservoir 100 mM HEPES pH 7.0, 20% PEG 2000 MME; 2.31 A; both purified

- binding: no binding
Binder: RHQGVMVGMGQKDS [synthetic actin D-loop peptide (residues 39 to 52 of actin)]
